Measured values published in US20100040706A1, “METHOD OF ANTI-AGEING COSMETIC CARE BY STIMULATION OF SURVIVIN EXPRESSION” (LVMH RECHERCHE, priority 2008, published 2010).
For at least one compound, name, drawing or mass did not settle the structure.

Test system: survivin
Test: Survivin ELISA assay on normal human keratinocyte cultures, related to total proteins (BCA)
Format: cell-based
Settings: conclusion in words
Experimental: The normal human keratinocytes are cultured in 75 cm^2 flasks, in an incubator at 37° C. under a humid atmosphere containing 5% CO2, in serum-free keratinocyte medium supplemented with EGF (Epidermal Growth Factor) and with BPE (Bovine Pituitary Extract) (KSFMc) (Gibco ref: 17005-034+37000-015). The cells are seeded (day D0) into 48-well microplates in a proportion of 50 000 cells in 500 μL of medium per well. After incubation for 24 hours (day D1), the cells have become adherent and the treatment step is then carried out. The seeding medium is removed and the treatment medium containing the ingredients to be evaluated at the various concentrations, or the excipient thereof (for example DMSO) in the same proportion, is then added to each culture well. A peak of survivin expression by the cells is observed after treatment for 16 hours. The wells are then rinsed with PBS. Half the wells of the microplate are used to lyse the keratinocytes and to assay the intracellular survivin. […] The total proteins are assayed using a BCA colorimetric test (reference: BC Assay Kit, Uptima Interchim), by measuring absorbance at 570 nm. […] After the enzyme reaction has been blocked with sulfuric acid, the survivin is quantified by measuring absorbance at 450 nm.

With C=C[C@@]1(C)CC(=O)[C@]2(O)[C@@]3(C)[C@@H](O)CCC(C)(C)[C@@H]3[C@H](O)[C@H](OC(C)=O)[C@@]2(C)O1 [Forskolin, forskolin] the “intrakeratinocyte survivin expression compared with the basal level (controls)” value was “significantly increases”.
